Laboratory results taken from PMC6996572.

Chains of the proteins cited; added tags and fusions are not shown. Residues count along the entry.
UniProt Q9UDW1: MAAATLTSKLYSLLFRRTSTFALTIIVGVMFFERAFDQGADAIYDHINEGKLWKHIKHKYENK
UniProt P10606, residues 32-129: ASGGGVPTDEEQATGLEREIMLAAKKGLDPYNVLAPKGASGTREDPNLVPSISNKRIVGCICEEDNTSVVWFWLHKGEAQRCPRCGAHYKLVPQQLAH
UniProt O14949: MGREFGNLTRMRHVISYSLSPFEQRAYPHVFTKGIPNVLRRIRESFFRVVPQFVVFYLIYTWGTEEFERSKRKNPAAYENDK
UniProt P09669: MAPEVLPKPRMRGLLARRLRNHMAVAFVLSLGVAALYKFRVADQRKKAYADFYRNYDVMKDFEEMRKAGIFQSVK
UniProt P14927: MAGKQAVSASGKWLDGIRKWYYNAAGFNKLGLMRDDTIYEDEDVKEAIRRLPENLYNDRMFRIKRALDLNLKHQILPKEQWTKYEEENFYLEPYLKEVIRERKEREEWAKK
UniProt P07919, residues 14-91: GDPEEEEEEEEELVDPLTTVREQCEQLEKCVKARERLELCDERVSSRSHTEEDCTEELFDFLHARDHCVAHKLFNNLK

Biological target: HA-tagged UQCR10 (UQCR10^HA) (human) (UniProt Q9UDW1)
Assay: affinity purification with mass spectrometry; anti-HA antibody conjugated to Sepharose beads; HA-tagged cIII2 subunit (UQCR10^HA or CYC1^HA) expressed in WT and Δ4-CYB cybrids, SILAC heavy/light reciprocal labelling in duplicate, Δ4-CYB against WT ratios

| Molecule | binding |
| --- | --- |
| COX5B (from UniProt P10606 32-129) | binds |
| UQCRQ (from UniProt O14949 1-82) | binds |
| COX7A2L (protein, UniProt O14548 56-114) GKNKVPELQKFFQKADGVPVYLKRGLPDQMLYRTTMALTVGGTIYCLIALYMASQPKNK | binds |
| GHITM (growth hormone-inducible transmembrane protein) (protein, UniProt Q9H3K2 46-345) ATKTRIGIRRGRTGQELKEAALEPSMEKIFKIDQMGRWFVAGGAAVGLGALCYYGLGLSNEIGAIEKAVIWPQYVKDRIHSTYMYLAGSIGLTALSAIAISRTPVLMNFMMRGSWVTIGVTFAAMVGAGMLVRSIPYDQSPGPKHLAWLLHSGVMGAVVAPLTILGGPLLIRAAWYTAGIVGGLSTVAMCAPSEKFLNMGAPLGVGLGLVFVSSLGSMFLPPTTVAGATLYSVAMYGGLVLFSMFLLYDTQKVIKRAEVSPMYGVQKYDPINSMLSIYMDTLNIFMRVATMLATGGNRKK | binds |

Other lines, results leading:

| binding | Molecule |
| --- | --- |
| binds | COX6C (from UniProt P09669 1-75) |
| binds | UQCRB (from UniProt P14927 1-111) |
| binds | UQCRH (from UniProt P07919 14-91) |

No constants are given. Whether binding was seen depends on the method and setting. In cells and extracts the contact can be indirect. A yes stands for co-enrichment or nearness to the bait. Other partners may have been found.
